Data from PMC6947699.
No constants are given. Whether binding was seen depends on the method and setting. Binding seen in cells or lysates may run through a third protein. A yes stands for co-enrichment or nearness to the bait. Other partners may have been found. Sequences can lack the tags named with a protein.

Molecular target: T1, Ubiquitin-specific protease 15 (USP15) in SUM159 cells (human (in human SUM159 cells; endogenous or HA-tagged not told)) (UniProt Q9Y4E8)
T1 sequence: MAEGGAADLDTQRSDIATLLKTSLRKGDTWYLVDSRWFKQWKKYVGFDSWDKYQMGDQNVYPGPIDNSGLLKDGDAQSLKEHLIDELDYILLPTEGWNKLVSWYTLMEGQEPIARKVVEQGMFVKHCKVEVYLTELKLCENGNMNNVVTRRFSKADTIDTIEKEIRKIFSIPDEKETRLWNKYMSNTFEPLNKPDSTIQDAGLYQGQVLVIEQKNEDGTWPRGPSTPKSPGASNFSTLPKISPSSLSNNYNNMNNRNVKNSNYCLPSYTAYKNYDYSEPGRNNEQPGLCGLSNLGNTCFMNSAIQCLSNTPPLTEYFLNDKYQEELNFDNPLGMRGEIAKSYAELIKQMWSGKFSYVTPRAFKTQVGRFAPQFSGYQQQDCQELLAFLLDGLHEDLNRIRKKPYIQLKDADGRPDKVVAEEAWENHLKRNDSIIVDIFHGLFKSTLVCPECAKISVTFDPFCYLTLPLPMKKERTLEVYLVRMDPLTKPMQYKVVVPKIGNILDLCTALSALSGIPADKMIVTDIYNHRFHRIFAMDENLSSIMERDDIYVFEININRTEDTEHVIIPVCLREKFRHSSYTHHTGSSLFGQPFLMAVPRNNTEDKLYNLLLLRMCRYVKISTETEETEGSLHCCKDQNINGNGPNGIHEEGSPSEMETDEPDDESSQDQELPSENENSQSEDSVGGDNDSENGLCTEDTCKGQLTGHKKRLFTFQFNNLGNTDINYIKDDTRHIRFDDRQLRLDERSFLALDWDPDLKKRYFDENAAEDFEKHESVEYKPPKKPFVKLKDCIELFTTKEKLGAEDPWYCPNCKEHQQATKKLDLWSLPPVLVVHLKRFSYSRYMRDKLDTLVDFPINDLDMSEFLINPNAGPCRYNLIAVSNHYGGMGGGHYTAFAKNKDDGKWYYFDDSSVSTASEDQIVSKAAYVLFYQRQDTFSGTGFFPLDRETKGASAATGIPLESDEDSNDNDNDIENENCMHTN
Assay: affinity purification with mass spectrometry; Co-IP and mass spectroscopy from SUM159-IL1R2/-sIL1R2 and MB231-IL1R2/-sIL1R2 cells

B1: Full-length interleukin-1 receptor type 2 (IL1R2) with a C-terminal FLAG tag (receptor, UniProt P27930-1 14-398)
chain: FTLQPAAHTGAARSCRFRGRHYKREFRLEGEPVALRCPQVPYWLWASVSPRINLTWHKNDSARTVPGEEETRMWAQDGALWLLPALQEDSGTYVCTTRNASYCDKMSIELRVFENTDAFLPFISYPQILTLSTSGVLVCPDLSEFTRDKTDVKIQWYKDSLLLDKDNEKFLSVRGTTHLLVHDVALEDAGYYRCVLTFAHEGQQYNITRSIELRIKKKKEETIPVIISPLKTISASLGSRLTIPCKVFLGTGTPLTTMLWWTANDTHIESAYPGGRVTEGPRQEYSENNENYIEVPLIFDPVTREDLHMDFKCVVHNTLSFQTLRTTVKEASSTFSWGIVLAPLSLAFLVLGGIWMHRRCKHRTGKADGLTVLWPHHQDFQSYPK
With B1 the binding was “binds”.
